The campaign covered roughly 390,000 compounds. About 4,000 (1%) were called active. The inconclusive results got no clear call from the source; some entries with a clear call stand among them for comparison. Calls follow the shape of the dose curve; as a rule, active = well fitted inhibition curve with a large enough effect; inconclusive = small, poorly fitted or top-dose-only effect, or another doubt; inactive = no such curve, though single readings can be large or run the other way. Potencies beside an inconclusive call are fits to weak or partial responses and may not hold up.
molecular target: DNA polymerase iota (Homo sapiens) (UniProt Q9UNA4); assay: qHTS for Inhibitors of Polymerase Iota; conditions: Pol iota fluorescent replication assay, 10 min; series mostly up to 115 µM
Outline: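 Fluorescent replication assay read twice, at 0 min and 10 min after adding 50 nM (final) substrate. Enzyme (10 nM) and compounds were first incubated 15 min at room temperature; enzyme-free buffer wells were negative controls.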
Potency is read from the fitted curve at half-maximal effect.

Amino acid sequences for entries named in this document (tags omitted). A change or cut given only in a name is not applied to a line headed by its entry.
UniProt Q9UNA4: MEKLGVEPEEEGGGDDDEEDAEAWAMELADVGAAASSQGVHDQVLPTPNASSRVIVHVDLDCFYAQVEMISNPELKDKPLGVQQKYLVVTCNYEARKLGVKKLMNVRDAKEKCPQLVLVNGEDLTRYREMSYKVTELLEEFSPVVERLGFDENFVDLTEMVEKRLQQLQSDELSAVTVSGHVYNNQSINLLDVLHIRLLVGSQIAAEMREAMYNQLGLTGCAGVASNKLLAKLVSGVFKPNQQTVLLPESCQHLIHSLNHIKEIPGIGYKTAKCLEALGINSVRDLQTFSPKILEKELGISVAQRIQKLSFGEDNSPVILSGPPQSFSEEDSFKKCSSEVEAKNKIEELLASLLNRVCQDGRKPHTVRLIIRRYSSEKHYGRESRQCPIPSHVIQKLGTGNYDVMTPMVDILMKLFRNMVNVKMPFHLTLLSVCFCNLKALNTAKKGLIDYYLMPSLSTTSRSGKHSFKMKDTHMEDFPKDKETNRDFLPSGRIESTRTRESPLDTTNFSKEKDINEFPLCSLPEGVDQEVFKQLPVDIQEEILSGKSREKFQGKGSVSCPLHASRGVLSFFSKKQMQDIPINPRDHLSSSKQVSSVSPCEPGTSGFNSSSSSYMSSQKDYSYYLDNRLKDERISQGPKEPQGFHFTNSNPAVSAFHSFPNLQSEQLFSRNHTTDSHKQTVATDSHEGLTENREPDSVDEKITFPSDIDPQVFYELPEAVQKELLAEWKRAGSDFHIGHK

Structure (SMILES)	Potency
Cc1ccc(OCC(=O)N/N=C\c2ccc(-c3cccc(C(=O)O)c3)o2)c(C)c1	inconclusive: 22.4 µM [inhibitor, partial curve, poor fit]
CCCCN1C=C(C(=O)OC)C(c2ccccc2C(F)(F)F)C(C(=O)OC)=C1	inconclusive: 10 µM [inhibitor, partial curve, poor fit]
Cc1noc(C)c1NC(=O)N(C)C[C@H]1Oc2c(NC(=O)c3ccncc3)cccc2C(=O)N([C@H](C)CO)C[C@@H]1C	inconclusive: 14.1 µM [inhibitor, full curve, poor fit]
CSc1nc(C)c(C(=O)C[n+]2ccccc2)cc1C#N	inconclusive: 44.7 µM [inhibitor, single point]
CCCN1C(=O)/C(=C/c2ccc(C)o2)SC1=Nc1ccc(OCC)cc1	inconclusive: 5.01 µM [inhibitor, full curve, poor fit]
CCCCn1ccnc1C(=O)c1ccc(S(=O)(=O)N(CCOC)CCOC)cc1	inconclusive: 14.1 µM [inhibitor, partial curve, poor fit]
Clc1ccc(OCc2nnc3n2CCCCC3)c(Cl)c1	inconclusive: 20 µM [inhibitor, partial curve, poor fit]
COc1cc(C(=S)N2CCN(c3cccc(Cl)c3)CC2)ccc1O	inactive
CCCCSc1nc(SCC(=O)NCc2ccco2)c2c3c(sc2n1)COC(C)(CC)C3 (stereo not drawn)	inconclusive: 100 µM [inhibitor, single point]
Cc1ccc(N2C(=O)CSC23C(=O)N(CC(=O)NC2CCCCC2)c2ccccc23)cc1C (stereo not drawn)	inconclusive: 89.1 µM [inhibitor, single point]
CCc1nn2c(=O)cc(COc3cccc(NC(=O)c4ccco4)c3)nc2s1	active: 50.1 µM
CCOC(=O)C1=C(C)N=c2s/c(=C\c3ccc(C(=O)O)cc3)c(=O)n2C1c1ccc(F)cc1 (stereo not drawn)	inconclusive: 2 µM [inhibitor, full curve, poor fit]
CCOc1ccc(C(=O)CC(C(=O)O)N2CCCCC2)cc1 (stereo not drawn)	inconclusive: 7.08 µM [inhibitor, full curve, poor fit]
O=C(O)c1ccc2c(c1)C(=O)N(Cc1ccco1)C2=O	inconclusive: 35.5 µM [inhibitor, partial curve, poor fit]
CC1CCCC2(C1)NC(=S)c1c(sc3c1CCCC3)N2 (stereo not drawn)	inconclusive: 15.8 µM [inhibitor, partial curve, poor fit]
O=C(N/N=C/c1ccncc1)c1ccc(NC(=O)c2cccc(Cl)c2)cc1	inconclusive: 56.2 µM [inhibitor, partial curve, poor fit]
Cc1ccc2nc(COc3ccccc3NC(=O)COc3ccccc3Cl)cc(=O)n2c1	inconclusive: 100 µM [inhibitor, partial curve, poor fit]
O=C1CSC(=S)N1/N=C/c1c(F)cccc1F	inconclusive: 7.94 µM [inhibitor, partial curve]
O=C(COC(=O)c1ccc2ncsc2c1)Nc1ccccc1Br	inconclusive: 25.1 µM [inhibitor, partial curve, poor fit]
O=c1c2ccccc2c(C=Nc2cccc(S(=O)(=O)NC3=NCCCCC3)c2)c(O)n1Cc1ccccc1	inconclusive: 79.4 µM [inhibitor, partial curve]

Structure (SMILES)	Potency
COc1cc2c(cc1OC)-c1cc(Nc3ccc(C(=O)O)cc3)nc(=O)n1CC2	inconclusive: 15.8 µM [inhibitor, partial curve, poor fit]
O=C(Nc1ccc(C(=O)OCc2cc(=O)n3c4c(sc3n2)CCCC4)cc1)c1ccc(Cl)cc1	inactive
Cc1ccc2c(=O)cc(C(=O)Nc3c(C(=O)Nc4cccc(Cl)c4)oc4ccccc34)oc2c1	inactive
CC(C)c1ccc(NC(=O)COC(=O)C2CC3C=CC2C3)cc1 (stereo not drawn)	inconclusive: 0.708 µM [inhibitor, full curve, poor fit]
O=C(CN1C(=O)CCC1=O)NCC12CC3CC(CC(C3)C1)C2	inconclusive: 15.8 µM [inhibitor, single point]
N#CCC(=O)Nc1ccc(C(=O)OCC(=O)N=c2sccn2Cc2ccccc2Cl)cc1	inconclusive: 10 µM [inhibitor, partial curve, poor fit]
N#Cc1c(-c2ccccc2)nc(SCC(=O)N2c3ccccc3Sc3ccccc32)[nH]c1=O	inconclusive: 31.6 µM [inhibitor, single point]
CC(C)S(=O)(=O)c1oc(-c2cccs2)nc1S(=O)(=O)c1ccc(F)cc1	inconclusive: 20 µM [inhibitor, partial curve, poor fit]
COC1=CC(=O)C(C2CC(=O)c3c(O)cc(O)cc3O2)=CC1=O (stereo not drawn)	inconclusive: 10 µM [inhibitor, full curve, poor fit]
C=C(C)C(=O)Nc1cccc(C2=NOC3(C2)C[C@@H](C(N)=O)N(C(=O)CC(c2ccccc2)c2ccccc2)C3)c1 (stereo partly drawn)	inconclusive: 56.2 µM [inhibitor, partial curve, poor fit]
O=C(CSc1ccc2c(c1)OCCO2)NCC1CCCO1 (stereo not drawn)	inconclusive: 39.8 µM [inhibitor, partial curve, poor fit]
Cc1cc(C(=O)Nc2ccc3nc(C)sc3c2)c2ccccc2n1	inconclusive: 2.24 µM [inhibitor, full curve, poor fit]
CC(C)(C)c1ccc(C(=O)OCC(=O)N2CCC(c3ccccc3)=N2)cc1	inactive
CCOC(=O)Nc1ccc2c(c1)N(C(=O)N1CCN(C)CC1)c1ccccc1CC2	inconclusive: 20 µM [inhibitor, partial curve, poor fit]
Cc1ccc(NC(=O)c2c(-c3c(F)cccc3Cl)noc2C)cc1F	inconclusive: 39.8 µM [inhibitor, single point]
C=CCOc1ccc(CNc2ccc3[nH]c(=O)[nH]c3c2)cc1OCC	inconclusive: 39.8 µM [inhibitor, single point]
CCN(CCCNC(=O)c1cc(Nc2ccc(OC)cc2OC)nc2ccccc12)c1cccc(C)c1	inactive
CSc1ccc(/C=C/c2cc(=O)c3ccccc3[nH]2)cc1	inconclusive: 112 µM [inhibitor, partial curve, poor fit]
CN1CC(=O)Nc2ccc(Br)cc2C1=O	inconclusive: 17.8 µM [inhibitor, partial curve, poor fit]
Cc1c(C(=O)Nc2ccccn2)oc2ccc(Br)cc12	inconclusive: 22.4 µM [inhibitor, partial curve]

Of the compounds above, these have a furan ring, fused or not.
Structure (SMILES)	Potency
Cc1ccc(OCC(=O)N/N=C\c2ccc(-c3cccc(C(=O)O)c3)o2)c(C)c1	inconclusive: 22.4 µM [inhibitor, partial curve, poor fit]
CCCN1C(=O)/C(=C/c2ccc(C)o2)SC1=Nc1ccc(OCC)cc1	inconclusive: 5.01 µM [inhibitor, full curve, poor fit]
CCCCSc1nc(SCC(=O)NCc2ccco2)c2c3c(sc2n1)COC(C)(CC)C3 (stereo not drawn)	inconclusive: 100 µM [inhibitor, single point]
CCc1nn2c(=O)cc(COc3cccc(NC(=O)c4ccco4)c3)nc2s1	active: 50.1 µM
O=C(O)c1ccc2c(c1)C(=O)N(Cc1ccco1)C2=O	inconclusive: 35.5 µM [inhibitor, partial curve, poor fit]
Cc1ccc2c(=O)cc(C(=O)Nc3c(C(=O)Nc4cccc(Cl)c4)oc4ccccc34)oc2c1	inactive
Cc1c(C(=O)Nc2ccccn2)oc2ccc(Br)cc12	inconclusive: 22.4 µM [inhibitor, partial curve]

Quoted from above (2 entries):
Structure (SMILES)	Potency
Cc1ccc(NC(=O)c2c(-c3c(F)cccc3Cl)noc2C)cc1F	inconclusive: 39.8 µM [inhibitor, single point]
C=CCOc1ccc(CNc2ccc3[nH]c(=O)[nH]c3c2)cc1OCC	inconclusive: 39.8 µM [inhibitor, single point]

The list goes on.

Structure (SMILES)	Potency
O=C(Nc1ncc(Cc2ccccc2Cl)s1)C1CCCO1 (stereo not drawn)	inconclusive: 70.8 µM [inhibitor, partial curve, poor fit]
Cc1ccc(OCCn2c(-c3ccc(Br)cc3)nc3ccccc3c2=O)cc1C	inconclusive: 89.1 µM [inhibitor, partial curve, poor fit]
CN(C)/C=C1/C=C(c2ccccc2)OC1=O	inconclusive: 20 µM [inhibitor, partial curve, poor fit]
O=C(CSc1nnnn1-c1ccc(O)cc1)NC1CCCCC1	inactive
COc1ccc2[nH]c(C)c(CCN(Cc3cccs3)C(=S)Nc3cccc(F)c3)c2c1	inconclusive: 39.8 µM [inhibitor, single point]
COc1ccc(C(=O)N/N=C2\SCC(=O)N2Cc2ccc3c(c2)OCO3)c(OC)c1	inconclusive: 22.4 µM [inhibitor, full curve, poor fit]
CCC(CO)Oc1cc(NC(=O)c2cccc(C)c2)c2ncn(C(C)C)c2c1 (stereo not drawn)	inconclusive: 7.08 µM [inhibitor, full curve, poor fit]
CCOC(=O)CSc1nnc(-c2ccccc2)o1	inconclusive: 100 µM [inhibitor, single point]
COc1ccc2c(c1)C(=O)N1[C@H]3c4cc(C)ccc4OC[C@@H]3[C@H](c3ccccc3)[C@]1(C)C(=O)N2	inconclusive: 20 µM [inhibitor, full curve, poor fit]
COc1ccc(S(=O)(=O)N2CCC(C(=O)N3CCc4ccccc4C3)CC2)cc1Cl	inconclusive: 35.5 µM [inhibitor, single point]
Cc1ccc(C)c(NC(=O)C(OC(=O)c2ccc(NC(=O)CC#N)cc2)c2ccccc2)c1 (stereo not drawn)	inconclusive: 28.2 µM [inhibitor, partial curve, poor fit]
CCN(c1ccccc1)S(=O)(=O)c1cc(C(=O)O)ccc1C	inconclusive: 28.2 µM [inhibitor, partial curve, poor fit]
COc1cccc(N2C(=O)C3CC=C(Cl)CC3C2=O)c1 (stereo not drawn)	inconclusive: 39.8 µM [inhibitor, single point]
O=C(NCc1cccnc1)/C(=C\c1ccc(-c2ccc(Br)cc2)o1)S(=O)(=O)c1ccccc1	inconclusive: 35.5 µM [inhibitor, partial curve, poor fit]
CC(C)Cc1ccc(C(C)C(=O)Nc2cccnc2)cc1 (stereo not drawn)	inconclusive: 14.1 µM [inhibitor, partial curve, poor fit]
COCCn1c(N)c(N(Cc2ccccc2)C(=O)CN2C(=O)NC(C)(c3ccccc3)C2=O)c(=O)[nH]c1=O (stereo not drawn)	inactive
Cc1cn2c(N)c(/C=C3\C=Nc4ccccc43)c(=O)nc2s1	inconclusive: 10 µM [inhibitor, partial curve, poor fit]
CC(=O)c1ccc(NC(=O)C2CCCN2S(=O)(=O)c2ccc(C)cc2)cc1 (stereo not drawn)	inconclusive: 31.6 µM [inhibitor, single point]

Source: PubChem BioAssay AID588590 (National Center for Advancing Translational Sciences (NCATS), 2011)
